Laboratory results published in article doi:10.1101/2024.03.10.583603.
Results are given in words; binding and its absence hold for the method and conditions named.

Sequences of proteins named here, by UniProt entry; tags and fusion partners are left off. A change or cut given only in a name is not applied to a line headed by its entry.
UniProt P62837: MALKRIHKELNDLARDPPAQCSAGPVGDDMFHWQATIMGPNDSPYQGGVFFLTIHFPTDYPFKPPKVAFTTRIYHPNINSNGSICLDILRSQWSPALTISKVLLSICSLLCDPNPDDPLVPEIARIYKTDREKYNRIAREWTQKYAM

Target: Ube2d2^S22R (UniProt P62837)
Experiment: AUC

“Ube2d2^S22R (from UniProt P62837 1-147) (enzyme)” was tested, and the binding was “no binding (tested: 15 µM)”.
